Measurements: patent publication US20140322240A1
No constants are given. Whether binding was seen depends on the method and setting. Some entries that bind do so weakly or less than the wild type.

Protein sequences, listed by entry. Tags and fused reporters are not part of them. Lines headed by an entry give the natural chain unless they say otherwise; changes in a name come on top. Chains listed by the source or under a name are the forms on record and can include a tag or linker.
human IgM (P01871, form named): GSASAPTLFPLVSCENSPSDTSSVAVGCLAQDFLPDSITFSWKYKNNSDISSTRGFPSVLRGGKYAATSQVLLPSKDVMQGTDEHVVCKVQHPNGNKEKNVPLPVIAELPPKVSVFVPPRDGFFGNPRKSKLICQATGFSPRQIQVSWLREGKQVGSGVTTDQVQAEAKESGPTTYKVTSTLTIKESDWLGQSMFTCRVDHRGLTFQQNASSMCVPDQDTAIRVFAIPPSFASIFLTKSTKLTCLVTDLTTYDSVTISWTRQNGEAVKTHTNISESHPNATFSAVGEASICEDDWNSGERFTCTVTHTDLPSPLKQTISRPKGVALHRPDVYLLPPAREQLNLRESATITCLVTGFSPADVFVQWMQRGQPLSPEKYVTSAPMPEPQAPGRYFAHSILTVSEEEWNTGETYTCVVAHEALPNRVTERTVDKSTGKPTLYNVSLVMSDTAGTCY

Target: PfEMP1 variant TM284var1 (Plasmodium falciparum (strain TM284))
Assay: IFA with an anti-human IgM monoclonal antibody on infected erythrocytes

Substance: human IgM (from UniProt P01871 1-453) (antibody)
- binding: binds
